In paper PMC12040169 (PLOS Biology, 2025):
The other results are listed elsewhere or left out.

system: T1, CTL2-GFP (C. trachomatis L2/434/Bu, GFP-expressing); design: species or system HeLa; Intracellular C. trachomatis growth in HeLa cells, bulk GFP fluorescence relative to DMSO; details: bulk GFP, single well; 28.5 h, 10 µM; inhibitor
T1 construct: L2/434/Bu, GFP-expressing

First: CCc1nc2ccc(NC(=O)CCCc3ccncc3)cc2[nH]1 [CBK283268]
Second: CCN(Cc1ccncc1)C(=O)NCCN1CCOCC1 [CBK145055]
The “% of control remaining” value of the first is lower: 70.3294% for the first, 106.495% for the second.

Going from `c1cnc(NCc2cc3n(n2)CCN(CC2CCCNC2)C3)nc1` (centres unmarked) [CBK306981] to `CCn1cc(CN2CCCN(C(=O)c3ccc(Cl)cn3)CC2)cn1` [CBK304760], the “% of control remaining” value rises from 122.968% to 125.211%.

Going from `Cc1ccc2nsnc2c1NC(=O)CSc1nccn1C` [CBK269411] to `CC(=O)c1cnc2nc(-c3cccnc3)nn2c1C` [CBK287859], the “% of control remaining” value falls from 105.304% to 95.1374%.

Going from `CC(=O)N1CCc2sccc2C1c1ccc(NCc2ccc(F)cc2F)cc1` (centres unmarked) [CBK286455] to `COc1ccc(C(NC(=O)C2CCN(CCOc3ccc(Br)cc3)CC2)c2ccco2)cc1` (centres unmarked) [CBK148311], the “% of control remaining” value rises from 134.964% to 136.559%.

Going from `CCCc1oc(C(=O)O)cc1CN1CCOCC1` [CBK267984C] to `O=C(OCc1ccc2sccc2c1)N1CCOCC1` [CBK200163], the “% of control remaining” value falls from 111.235% to 103.092%.

Going from `CC(Cc1ccccn1)NC(=O)Cc1ccc2c(c1)CCCO2` (centres unmarked) [CBK282115] to `O=C(O)c1cc(NS(=O)(=O)c2ccc3c(c2)OCCCO3)ccc1F` [CBK296731], the “% of control remaining” value rises from 121.925% to 144.197%.

Compared with `Cc1nc(C)c(C(=O)NC2CCCNC2=O)s1` (centres unmarked) [CBK281628], `CCOC(=O)N1CCN(S(=O)(=O)c2coc(C)c2C(=O)OC)CC1` [CBK057079] is lower in “% of control remaining” value: 130.541% for the first, 106.542% for the second.

Going from `COCCNC(=O)c1cnn2c(C)c(Cc3ccccc3C(F)(F)F)c(C)nc12` [CBK165210] to `CC(C)n1nnnc1-c1ccccc1NS(=O)(=O)c1cn[nH]c1` [CBK305542], the “% of control remaining” value falls from 121.362% to 111.515%.

Compared with `CC(=O)Nc1ccc(S(=O)(=O)Nc2nc3ccccc3nc2Nc2ccc(C(=O)O)cc2)cc1` [CBK296079], `O=C(Nc1cccnc1)c1cc(C(=O)c2ccc(Cl)cc2Cl)c[nH]1` [CBK107406] is lower in “% of control remaining” value: 96.9707% for the first, 79.0871% for the second.

Compared with `CCOC(=O)N1CCN(S(=O)(=O)c2ccc3c(c2)n(C)c(=O)n3C)CC1` [CBK304620], `Cc1cc(NS(=O)(=O)c2ccc(-c3ccon3)s2)n(C)n1` [CBK067257] is higher in “% of control remaining” value: 130.899% for the first, 233.037% for the second.

First: COc1cccc(-c2ccc3ccc(N)nc3n2)c1 [CBK061640]
Second: C[C@@H]1CN2CCCC2CN1CCc1ccccc1 (some centres unmarked) [CBK285424]
The “% of control remaining” value of the first is lower: 100% for the first, 121.052% for the second.

With `O=C(Nc1ccccn1)NC1CCS(=O)(=O)C1` (centres unmarked) [CBK021330] the “% of control remaining” value was 151.993%.
